Measurements reported in patent US20070020269A1 (published 2007).

Assays:
Assay in all cases: yeast two-hybrid
cyclin G = molecular target: cyclin G
cyclin A = molecular target: cyclin A
cyclin B = molecular target: cyclin B

Measured: binding

B1: RX50 bait (RX50 gene in modified fusion plasmid pGBKT7, Gal4 yeast two-hybrid system) (enzyme, not shown: large carriers)
chain: MHGYFGCNAAAEPGYSAFVGTPQICVTKFSTRNCQGMDSVIKPLDTIPEDKKVRVQRTQSTFDPFEKPANQVKRVHSENNACINFKTSSTGKESPKVRRHSSPSSPTSPKFGKADSYEKLEKLGEGSYAYVYKGKSKVNGKLVALKVIRLQEEEGTPFTAIREASIIKGLKHANIVLLHDIIHTKETLTLVFEYYHTDLCQYMDKHPGGLHPDNVKLFLFQLLRGLSYIHQRYILHRDLKPGNLLISDTGELKLADFGLAKAKSVPSHTTSNEVVYLWYRPPDVLLGSTEYSTCLDMWGVGCIFVEMIQGVAAFPGMKDIQDQLERIFLVLGTPNEDTWPGVHSLPHFKPERFTLYSSKNLRQAWNKLSYVNHAEDLASKLLQCSPKNRLSAQAALSHEYFSDLPPRLWELTDMSSIFTVPNVRLQPEAGESMRAFGKNNSYGKSLSNSKH
no binding: all assays above

These are yes or no findings as the source states them, for the method shown. Where a sequence is shown, tags or fusion partners need not be part of it.
